Experimental data: PubChem BioAssay AID720710 (VTT Finland, 2013)

Assay: 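siRNAs sensitising CCNE1-overexpressing U-2 OS cells to replication stress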 (primary screen)
Cell system: human U-2 OS bone cancer cells, parental and a cyclin E (CCNE1) overexpressing line
Reagent: single siRNA against human genes, 1 µM siRNA in the printed spot mix
Duration: 67 h
Challenge: half the arrays: hydroxyurea 2 mM for 16 h, then 3 h recovery; other arrays untreated
Read-out: 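EdU click signal imaged per DAPI-stained nucleus at 67 h; each spot divided by its subgrid median, then z-scored relative to non-targeting control spots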
Reading the numbers: EdU z-score, cyclin E line, hydroxyurea and EdU z-score, parental, hydroxyurea and EdU z-score, cyclin E line, untreated and EdU z-score, parental, untreated: higher = more DNA synthesis than non-targeting controls
The deposit covers about 1,380 reagents; below is a random part of them. 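One array per condition without replicates; hydroxyurea arrays received 2 mM for 16 h plus 3 h recovery.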 Reagents against one gene are numbered here. Reagent sequences are not shown.

gene symbol | siRNA no. | EdU z-score, cyclin E line, hydroxyurea | EdU z-score, parental, hydroxyurea | EdU z-score, cyclin E line, untreated | EdU z-score, parental, untreated
PARG | 1 | -0.0504 | 0.945 | -3.13 | -1.67
PARG | 2 | 0.209 | 2.73 | -2.36 | 0.583
FANCE | 1 | -1.22 | 0.735 | -3.09 | 0.442
FANCE | 2 | -0.137 | 1.52 | 0.332 | 2.3
PURA | 1 | -0.876 | -2.93 | -1.37 | 0.5
PURA | 2 | -0.624 | 3.38 | 0.216 | 0.578
ACTL6B | 1 | -2.41 | -0.918 | -1.84 | -2.04
ACTL6B | 2 | 0.254 | -0.213 | 0.914 | 1.89
ZNF488 | 1 | -0.508 | 0.344 | -0.739 | -0.0365
ZNF488 | 2 | 0.372 | 0.45 | 1.44 | 0.661
HDAC7 | 1 | -0.475 | -1.04 | -0.639 | 0.397
HDAC7 | 2 | -0.451 | 0.517 | 0.24 | 1.04
RSF1 | 1 | -3.42 | 0.573 | -0.718 | -1.6
RSF1 | 2 | -2.36 | 6.86 | 0.102 | -1.02
HUS1 | 1 | 0.333 | 1.32 | -2.28 | -1.19
HUS1 | 2 | 0.811 | 1.57 | -0.764 | 0.261
CBL | 1 | -1.97 | 1.79 | -1.12 | -0.799
CBL | 2 | 0.773 | 2.66 | -0.963 | -0.217
LOC728340 | 1 | -0.614 | -1.17 | -3.69 | -0.518
LOC728340 | 2 | 0.615 | 3.09 | -1.32 | 0.258
NSD2 | 1 | 1.48 | -0.832 | -2.05 | -0.226
NSD2 | 2 | 2.09 | -0.0346 | -1.3 | 0.587
CEBPG | 1 | 0.33 | -2.38 | -1.63 | -0.528
CEBPG | 2 | 0.602 | -0.47 | -1.47 | 1.04
CEP250 | 1 | -0.397 | -0.503 | -1.61 | -0.575
CEP250 | 2 | -0.258 | 3.43 | 0.303 | 4.59
ACIN1 | 1 | -1.3 | -1.71 | -0.818 | 0.0803
ACIN1 | 2 | 1.15 | -1.21 | 0.35 | 1.51
ERCC5 | 1 | -0.0876 | -2.37 | -3.14 | -0.405
ERCC5 | 2 | 0.182 | -0.191 | -0.739 | 1.31
RAD50 | 1 | -1.33 | -6.3 | -0.494 | -0.0528
RAD50 | 2 | 1.36 | 1.21 | -0.485 | -0.00523
RECQL5 | 1 | -0.342 | -2.44 | -1.12 | -0.0462
RECQL5 | 2 | -0.0773 | -1.55 | -0.275 | -0.0072

Next part, starting with the last 4 of the part before.
gene symbol | siRNA no. | EdU z-score, cyclin E line, hydroxyurea | EdU z-score, parental, hydroxyurea | EdU z-score, cyclin E line, untreated | EdU z-score, parental, untreated
RAD50 | 1 | -1.33 | -6.3 | -0.494 | -0.0528
RAD50 | 2 | 1.36 | 1.21 | -0.485 | -0.00523
RECQL5 | 1 | -0.342 | -2.44 | -1.12 | -0.0462
RECQL5 | 2 | -0.0773 | -1.55 | -0.275 | -0.0072
TERF2IP | 1 | -0.543 | -1.2 | -1.68 | -3.11
TERF2IP | 2 | 0.648 | 4.4 | -1.47 | -2.98
FOXO3 | 1 | 0.87 | -4.67 | -0.872 | -0.0685
FOXO3 | 2 | 0.898 | -0.0414 | -0.826 | 0.0883
SMARCD1 | 1 | -0.797 | -0.605 | -1.96 | -1.02
SMARCD1 | 2 | -0.278 | 2.52 | 0.778 | 0.971
SGK1 | 1 | -1.3 | -1.73 | 0.137 | -0.91
SGK1 | 2 | -0.14 | 1.5 | 0.163 | 0.592
L3MBTL2 | 1 | -1.68 | 0.403 | -1.41 | -0.182
L3MBTL2 | 2 | 0.385 | 2.31 | 1.3 | 0.999
ASF1B | 1 | -1.5 | -3.28 | -0.399 | -1.63
ASF1B | 2 | 1.82 | -1.33 | 0.807 | -0.015
RPA3 | 1 | -1.33 | -0.101 | -1.13 | 0.0864
RPA3 | 2 | -0.672 | 2.83 | -0.997 | 0.222
APEX2 | 1 | -2.41 | -1.28 | -3 | -1.42
APEX2 | 2 | -0.899 | 1.4 | -0.454 | 0.641
TOPORS | 1 | -0.0568 | 0.748 | -3.21 | -1.02
TOPORS | 2 | -0.0367 | 3.3 | 0.281 | -0.343
PPARGC1A | 1 | -1.22 | -1.57 | -3.49 | -1.97
PPARGC1A | 2 | -0.13 | 2.05 | -1.28 | -0.114
ERCC2 | 1 | -1.05 | -1.23 | 0.211 | -0.687
ERCC2 | 2 | -0.258 | 3.52 | 0.843 | -0.207
FAAP24 | 1 | 0.417 | -2.51 | -2.14 | -2.7
FAAP24 | 2 | 1.7 | 2.14 | -0.316 | -0.823
PCNA | 1 | -1.14 | -2.38 | -2.98 | -3.23
PCNA | 2 | -0.331 | -0.956 | -2.06 | 1.26
POLD2 | 1 | -0.428 | -3.39 | -0.898 | -1.1
POLD2 | 2 | 0.179 | -0.155 | 0.0312 | -0.51
POLM | 1 | -0.444 | -0.697 | -0.555 | -2.83
POLM | 2 | 0.25 | 2.31 | 0.0794 | 0.82
TOP3B | 1 | -1.26 | 0.455 | 0.0633 | -1.11
TOP3B | 2 | -1.01 | 0.743 | 0.2 | -0.109
H4C16 | 1 | -2.64 | -1.37 | -0.698 | -0.213
H4C16 | 2 | 0.82 | 0.548 | 0.187 | 0.675
CDT1 | 1 | -0.497 | -1.93 | -0.71 | -1.26
CDT1 | 2 | -0.359 | -1.86 | -0.451 | 0.769
H2AC4 | 1 | -1.62 | -1.17 | -0.719 | -1.62
H2AC4 | 2 | 1.88 | 0.653 | -0.116 | 0.839
WRNIP1 | 1 | -0.792 | -1.67 | -0.96 | -0.153
WRNIP1 | 2 | -0.374 | -1.29 | 0.0196 | 1.24
